In experiment [1] the target is DPF2 (mouse (in E14 ESCs)) (UniProt Q61103). Briefly: co-IP; ESC lysate in 1% NP40, 50mM Tris-HCl pH7.4, 150mM NaCl, 1mM EDTA; the indicated antibodies 1 hour, Protein G Dynabeads at 4°C overnight; three washes with lysis buffer; immunoblot. A general note: In western blotting, separated proteins are transferred to a membrane and probed.
Experiment [2] shares this target. The description is as above. This is another data set of the same source.

Chains of the proteins cited; added tags and fusions are not shown.
UniProt Q61103: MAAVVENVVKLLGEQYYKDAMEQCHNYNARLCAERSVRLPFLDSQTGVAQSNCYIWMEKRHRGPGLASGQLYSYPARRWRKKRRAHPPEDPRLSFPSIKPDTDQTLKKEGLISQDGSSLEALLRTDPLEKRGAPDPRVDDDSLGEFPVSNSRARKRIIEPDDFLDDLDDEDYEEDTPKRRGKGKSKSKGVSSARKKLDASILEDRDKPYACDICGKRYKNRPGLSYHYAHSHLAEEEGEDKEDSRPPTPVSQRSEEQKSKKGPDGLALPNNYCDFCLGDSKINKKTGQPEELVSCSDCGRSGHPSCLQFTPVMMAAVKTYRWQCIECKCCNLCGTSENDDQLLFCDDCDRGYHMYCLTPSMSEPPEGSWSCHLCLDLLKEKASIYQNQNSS
UniProt Q3TKT4: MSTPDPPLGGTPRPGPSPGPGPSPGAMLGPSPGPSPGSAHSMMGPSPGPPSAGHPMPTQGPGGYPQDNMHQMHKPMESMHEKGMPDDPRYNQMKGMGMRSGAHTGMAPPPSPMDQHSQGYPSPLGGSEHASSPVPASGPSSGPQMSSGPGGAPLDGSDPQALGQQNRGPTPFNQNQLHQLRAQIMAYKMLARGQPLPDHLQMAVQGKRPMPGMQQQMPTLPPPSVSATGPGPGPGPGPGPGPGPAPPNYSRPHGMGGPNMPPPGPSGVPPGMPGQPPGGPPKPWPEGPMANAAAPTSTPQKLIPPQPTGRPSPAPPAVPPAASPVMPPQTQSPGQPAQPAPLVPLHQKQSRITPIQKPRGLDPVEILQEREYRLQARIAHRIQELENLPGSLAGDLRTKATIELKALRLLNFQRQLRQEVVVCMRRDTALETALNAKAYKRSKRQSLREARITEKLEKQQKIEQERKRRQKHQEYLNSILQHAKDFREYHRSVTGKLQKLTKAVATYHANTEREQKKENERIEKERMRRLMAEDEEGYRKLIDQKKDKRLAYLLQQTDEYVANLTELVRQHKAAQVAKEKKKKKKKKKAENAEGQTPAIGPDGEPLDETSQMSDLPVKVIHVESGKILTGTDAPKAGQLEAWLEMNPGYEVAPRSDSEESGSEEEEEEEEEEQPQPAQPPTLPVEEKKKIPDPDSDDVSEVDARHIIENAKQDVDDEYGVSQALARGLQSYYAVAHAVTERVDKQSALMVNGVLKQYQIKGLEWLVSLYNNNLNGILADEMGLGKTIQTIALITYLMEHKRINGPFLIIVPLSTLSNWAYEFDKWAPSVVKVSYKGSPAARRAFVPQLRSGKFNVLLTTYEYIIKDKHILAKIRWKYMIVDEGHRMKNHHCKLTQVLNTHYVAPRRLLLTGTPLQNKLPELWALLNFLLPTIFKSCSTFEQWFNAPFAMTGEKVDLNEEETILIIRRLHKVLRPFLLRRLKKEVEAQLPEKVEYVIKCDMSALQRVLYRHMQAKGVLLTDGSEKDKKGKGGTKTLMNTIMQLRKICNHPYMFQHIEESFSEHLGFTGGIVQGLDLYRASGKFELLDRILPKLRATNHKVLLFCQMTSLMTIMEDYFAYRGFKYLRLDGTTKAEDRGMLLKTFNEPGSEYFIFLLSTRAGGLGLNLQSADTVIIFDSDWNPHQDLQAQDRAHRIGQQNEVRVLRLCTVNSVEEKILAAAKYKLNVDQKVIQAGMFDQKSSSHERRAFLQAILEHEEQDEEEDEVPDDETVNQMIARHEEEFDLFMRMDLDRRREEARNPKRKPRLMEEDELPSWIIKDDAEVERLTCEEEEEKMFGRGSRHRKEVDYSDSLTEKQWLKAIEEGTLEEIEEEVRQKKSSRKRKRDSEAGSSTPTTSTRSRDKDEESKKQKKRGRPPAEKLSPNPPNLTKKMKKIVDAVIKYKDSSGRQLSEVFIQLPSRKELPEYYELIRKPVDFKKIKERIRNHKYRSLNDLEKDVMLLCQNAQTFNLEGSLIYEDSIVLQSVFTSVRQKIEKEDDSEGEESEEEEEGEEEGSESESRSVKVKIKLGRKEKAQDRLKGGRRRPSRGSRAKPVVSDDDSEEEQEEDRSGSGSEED
UniProt P48432: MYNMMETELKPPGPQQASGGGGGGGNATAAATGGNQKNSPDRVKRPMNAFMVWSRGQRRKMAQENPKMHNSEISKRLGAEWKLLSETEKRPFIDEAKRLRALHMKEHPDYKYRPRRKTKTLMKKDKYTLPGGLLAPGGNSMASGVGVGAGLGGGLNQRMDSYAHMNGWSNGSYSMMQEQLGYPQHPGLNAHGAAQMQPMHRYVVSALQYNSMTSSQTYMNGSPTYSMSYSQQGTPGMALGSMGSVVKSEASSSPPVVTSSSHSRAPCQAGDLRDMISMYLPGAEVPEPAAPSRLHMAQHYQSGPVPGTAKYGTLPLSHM

Like-named read-outs stand apart in the source and are kept apart here. Results are given in words; binding and its absence hold for the method and conditions named. Binding seen in cells or lysates may run through a third protein. Some binding calls cover weakened binding; strength is not graded here.

Consider “BRG1 [SMARCA4] (from UniProt Q3TKT4 1-1613)”, for which, in experiment [1], the binding entry is reported as “binds”.

For the molecule SOX2 (from UniProt P48432 1-319), in experiment [1], the binding entry is reported as “no binding”.

B1: NANOG (protein, UniProt Q80Z64 1-305)
chain: MSVGLPGPHSLPSSEEASNSGNASSMPAVFHPENYSCLQGSATEMLCTEAASPRPSSEDLPLQGSPDSSTSPKQKLSSPEADKGPEEEENKVLARKQKMRTVFSQAQLCALKDRFQKQKYLSLQQMQELSSILNLSYKQVKTWFQNQRMKCKRWQKNQWLKTSNGLIQKGSAPVEYPSIHCSYPQGYLVNASGSLSMWGSQTWTNPTWSSQTWTNPTWNNQTWTNPTWSSQAWTAQSWNGQPWNAAPLHNFGEDFLQPYVQLQQNFSASDLEVNLEATRESHAHFSTPQALELFLNYSVTPPGEI
As for B1, in experiment [2], the binding entry was “no binding”.

For the origin of these results see article PMC6486830.
